Measured values: the supplement of paper PMC12823440, “Inhibitors supercharge kinase turnover through native proteolytic circuits” (Nature, 2025)
The other results are listed elsewhere or left out. The calls rarely recur for the same compound in another form.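 Kinases were expressed as nanoluciferase fusions in K562 cells and luminescence was read every 4 h between 2 and 18 h as percent of control, DMSO set to 100% and a positive control to 0%. A time point counts as decreased when the signal drops significantly (2 sigma). The hit call is the authors' own, does not follow from the count of time points alone, and its rule is not shown.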

Chains of the proteins cited; added tags and fusions are not shown. Lines headed by an entry give the natural chain unless they say otherwise; changes in a name come on top.
UniProt P29317, whole entry: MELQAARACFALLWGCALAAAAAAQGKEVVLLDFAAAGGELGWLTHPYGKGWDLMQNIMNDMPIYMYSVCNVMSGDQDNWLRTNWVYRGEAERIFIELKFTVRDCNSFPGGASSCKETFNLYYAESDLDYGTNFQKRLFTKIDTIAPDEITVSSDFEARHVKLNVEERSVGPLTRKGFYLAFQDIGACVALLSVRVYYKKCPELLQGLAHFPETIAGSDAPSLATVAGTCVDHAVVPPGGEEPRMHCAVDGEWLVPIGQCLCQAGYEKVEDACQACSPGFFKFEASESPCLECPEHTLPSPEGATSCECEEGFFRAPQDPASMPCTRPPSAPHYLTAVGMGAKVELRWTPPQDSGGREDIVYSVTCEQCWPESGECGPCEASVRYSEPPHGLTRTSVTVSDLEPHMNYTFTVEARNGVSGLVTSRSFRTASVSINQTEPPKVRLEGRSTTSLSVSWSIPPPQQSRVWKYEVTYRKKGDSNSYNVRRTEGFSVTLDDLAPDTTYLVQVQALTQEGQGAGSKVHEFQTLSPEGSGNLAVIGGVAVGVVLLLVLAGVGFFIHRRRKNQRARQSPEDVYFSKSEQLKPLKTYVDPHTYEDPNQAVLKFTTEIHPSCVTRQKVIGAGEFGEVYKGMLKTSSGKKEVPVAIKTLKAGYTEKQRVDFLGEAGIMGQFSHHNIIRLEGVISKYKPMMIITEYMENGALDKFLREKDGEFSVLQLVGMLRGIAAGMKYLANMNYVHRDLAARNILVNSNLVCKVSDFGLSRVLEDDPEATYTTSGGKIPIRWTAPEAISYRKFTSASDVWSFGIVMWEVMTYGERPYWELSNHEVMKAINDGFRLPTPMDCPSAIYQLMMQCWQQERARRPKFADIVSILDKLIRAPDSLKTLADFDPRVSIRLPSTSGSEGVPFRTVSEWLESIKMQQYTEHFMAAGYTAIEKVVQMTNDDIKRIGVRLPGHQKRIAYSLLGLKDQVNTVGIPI
UniProt Q15303, whole entry R711C: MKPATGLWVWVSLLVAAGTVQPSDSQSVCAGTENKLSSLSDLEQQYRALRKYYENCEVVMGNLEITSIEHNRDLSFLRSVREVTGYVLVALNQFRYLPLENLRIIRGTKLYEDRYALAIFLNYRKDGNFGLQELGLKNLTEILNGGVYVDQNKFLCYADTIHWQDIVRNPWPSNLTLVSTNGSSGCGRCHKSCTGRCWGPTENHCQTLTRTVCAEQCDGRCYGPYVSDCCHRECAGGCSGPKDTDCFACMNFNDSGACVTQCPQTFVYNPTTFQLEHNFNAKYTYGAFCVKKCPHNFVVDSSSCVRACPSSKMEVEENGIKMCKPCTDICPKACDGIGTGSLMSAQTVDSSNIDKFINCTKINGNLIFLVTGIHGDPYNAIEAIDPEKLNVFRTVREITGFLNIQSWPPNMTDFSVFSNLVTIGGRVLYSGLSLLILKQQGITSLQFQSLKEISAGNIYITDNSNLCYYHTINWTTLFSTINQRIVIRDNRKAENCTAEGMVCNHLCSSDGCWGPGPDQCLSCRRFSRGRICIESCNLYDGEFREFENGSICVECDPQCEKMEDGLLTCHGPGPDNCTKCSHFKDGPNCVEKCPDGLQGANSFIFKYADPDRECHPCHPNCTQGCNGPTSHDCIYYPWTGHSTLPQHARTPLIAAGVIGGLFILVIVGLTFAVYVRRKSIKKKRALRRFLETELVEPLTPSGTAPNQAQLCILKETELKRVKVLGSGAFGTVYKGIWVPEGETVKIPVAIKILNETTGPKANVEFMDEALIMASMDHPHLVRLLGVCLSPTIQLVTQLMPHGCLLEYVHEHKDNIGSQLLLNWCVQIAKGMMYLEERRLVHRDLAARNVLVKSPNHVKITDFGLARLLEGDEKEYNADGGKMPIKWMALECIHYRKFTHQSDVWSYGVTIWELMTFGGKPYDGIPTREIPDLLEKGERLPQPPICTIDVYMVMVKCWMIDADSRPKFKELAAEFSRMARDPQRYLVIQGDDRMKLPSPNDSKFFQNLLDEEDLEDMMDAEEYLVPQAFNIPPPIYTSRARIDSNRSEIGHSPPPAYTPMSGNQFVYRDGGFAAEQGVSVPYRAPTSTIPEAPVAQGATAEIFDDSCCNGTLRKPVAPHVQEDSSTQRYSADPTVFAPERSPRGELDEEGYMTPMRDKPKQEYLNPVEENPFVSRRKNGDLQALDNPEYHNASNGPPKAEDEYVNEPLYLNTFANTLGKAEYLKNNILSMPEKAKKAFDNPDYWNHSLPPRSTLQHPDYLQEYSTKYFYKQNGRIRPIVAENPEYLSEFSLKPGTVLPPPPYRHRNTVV
UniProt O75460: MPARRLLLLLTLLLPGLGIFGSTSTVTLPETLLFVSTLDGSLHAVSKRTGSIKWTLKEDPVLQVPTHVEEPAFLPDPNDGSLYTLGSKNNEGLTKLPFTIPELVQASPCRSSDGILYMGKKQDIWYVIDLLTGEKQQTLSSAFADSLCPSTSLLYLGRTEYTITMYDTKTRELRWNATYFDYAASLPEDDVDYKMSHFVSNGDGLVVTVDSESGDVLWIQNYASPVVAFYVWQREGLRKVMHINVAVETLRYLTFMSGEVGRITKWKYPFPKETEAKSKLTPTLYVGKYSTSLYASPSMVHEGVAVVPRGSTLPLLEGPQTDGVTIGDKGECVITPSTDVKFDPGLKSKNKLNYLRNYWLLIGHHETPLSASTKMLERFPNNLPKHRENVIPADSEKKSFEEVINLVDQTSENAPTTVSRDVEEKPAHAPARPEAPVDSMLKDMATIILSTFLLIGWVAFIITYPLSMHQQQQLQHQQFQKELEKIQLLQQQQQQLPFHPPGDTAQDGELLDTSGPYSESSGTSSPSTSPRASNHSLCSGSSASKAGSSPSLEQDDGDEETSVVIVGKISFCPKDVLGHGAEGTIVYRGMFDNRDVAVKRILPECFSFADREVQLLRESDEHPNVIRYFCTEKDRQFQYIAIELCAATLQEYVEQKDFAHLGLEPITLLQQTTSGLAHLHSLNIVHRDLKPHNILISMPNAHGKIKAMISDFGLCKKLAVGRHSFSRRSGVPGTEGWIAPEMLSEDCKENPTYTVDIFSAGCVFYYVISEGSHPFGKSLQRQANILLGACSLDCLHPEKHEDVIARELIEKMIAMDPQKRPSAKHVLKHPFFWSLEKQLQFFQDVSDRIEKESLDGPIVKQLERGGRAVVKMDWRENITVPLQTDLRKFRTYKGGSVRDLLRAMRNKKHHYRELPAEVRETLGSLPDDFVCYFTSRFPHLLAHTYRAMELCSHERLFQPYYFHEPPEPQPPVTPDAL
UniProt P11362, whole entry, looked up: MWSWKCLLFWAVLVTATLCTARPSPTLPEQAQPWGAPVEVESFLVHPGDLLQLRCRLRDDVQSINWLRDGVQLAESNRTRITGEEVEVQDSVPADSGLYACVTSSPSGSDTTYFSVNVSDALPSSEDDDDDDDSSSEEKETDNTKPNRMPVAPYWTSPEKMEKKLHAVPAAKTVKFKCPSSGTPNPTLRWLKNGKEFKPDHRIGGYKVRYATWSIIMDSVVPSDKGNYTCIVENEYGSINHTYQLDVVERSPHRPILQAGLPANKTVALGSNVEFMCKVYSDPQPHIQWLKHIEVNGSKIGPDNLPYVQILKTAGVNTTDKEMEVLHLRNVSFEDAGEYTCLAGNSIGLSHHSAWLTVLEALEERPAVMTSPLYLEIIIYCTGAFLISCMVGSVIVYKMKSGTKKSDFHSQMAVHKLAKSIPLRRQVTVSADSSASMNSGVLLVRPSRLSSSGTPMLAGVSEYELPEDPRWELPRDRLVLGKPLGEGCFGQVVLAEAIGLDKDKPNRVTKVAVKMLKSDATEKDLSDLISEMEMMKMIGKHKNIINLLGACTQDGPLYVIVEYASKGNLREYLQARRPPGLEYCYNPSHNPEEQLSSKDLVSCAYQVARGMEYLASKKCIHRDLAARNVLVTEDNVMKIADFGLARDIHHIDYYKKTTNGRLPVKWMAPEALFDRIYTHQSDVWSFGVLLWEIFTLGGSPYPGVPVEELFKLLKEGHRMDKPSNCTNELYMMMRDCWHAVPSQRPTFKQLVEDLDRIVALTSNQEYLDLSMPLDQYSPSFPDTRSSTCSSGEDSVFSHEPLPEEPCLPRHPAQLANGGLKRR
UniProt P21802, whole entry, looked up: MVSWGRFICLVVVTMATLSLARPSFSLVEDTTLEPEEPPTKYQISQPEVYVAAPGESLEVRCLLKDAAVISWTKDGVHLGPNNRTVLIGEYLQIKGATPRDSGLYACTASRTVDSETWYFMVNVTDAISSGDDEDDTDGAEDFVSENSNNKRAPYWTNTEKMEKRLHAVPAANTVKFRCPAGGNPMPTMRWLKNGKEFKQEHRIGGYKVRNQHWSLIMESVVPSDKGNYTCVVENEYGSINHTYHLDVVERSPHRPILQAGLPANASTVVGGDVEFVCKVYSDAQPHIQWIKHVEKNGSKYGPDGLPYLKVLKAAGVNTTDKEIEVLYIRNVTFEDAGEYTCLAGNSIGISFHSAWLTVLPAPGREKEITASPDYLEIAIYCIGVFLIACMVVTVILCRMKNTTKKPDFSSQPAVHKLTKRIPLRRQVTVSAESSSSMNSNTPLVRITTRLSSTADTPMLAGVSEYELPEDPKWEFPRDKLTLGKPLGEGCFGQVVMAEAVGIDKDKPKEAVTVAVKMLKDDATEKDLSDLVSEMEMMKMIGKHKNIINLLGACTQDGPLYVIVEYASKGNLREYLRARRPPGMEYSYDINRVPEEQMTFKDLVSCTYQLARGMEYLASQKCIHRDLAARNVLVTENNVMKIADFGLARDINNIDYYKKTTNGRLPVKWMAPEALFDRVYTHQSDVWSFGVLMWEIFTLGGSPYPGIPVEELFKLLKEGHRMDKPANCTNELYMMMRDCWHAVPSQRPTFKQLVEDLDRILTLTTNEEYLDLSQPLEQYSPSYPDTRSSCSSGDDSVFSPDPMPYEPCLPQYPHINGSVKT
UniProt P36888, whole entry: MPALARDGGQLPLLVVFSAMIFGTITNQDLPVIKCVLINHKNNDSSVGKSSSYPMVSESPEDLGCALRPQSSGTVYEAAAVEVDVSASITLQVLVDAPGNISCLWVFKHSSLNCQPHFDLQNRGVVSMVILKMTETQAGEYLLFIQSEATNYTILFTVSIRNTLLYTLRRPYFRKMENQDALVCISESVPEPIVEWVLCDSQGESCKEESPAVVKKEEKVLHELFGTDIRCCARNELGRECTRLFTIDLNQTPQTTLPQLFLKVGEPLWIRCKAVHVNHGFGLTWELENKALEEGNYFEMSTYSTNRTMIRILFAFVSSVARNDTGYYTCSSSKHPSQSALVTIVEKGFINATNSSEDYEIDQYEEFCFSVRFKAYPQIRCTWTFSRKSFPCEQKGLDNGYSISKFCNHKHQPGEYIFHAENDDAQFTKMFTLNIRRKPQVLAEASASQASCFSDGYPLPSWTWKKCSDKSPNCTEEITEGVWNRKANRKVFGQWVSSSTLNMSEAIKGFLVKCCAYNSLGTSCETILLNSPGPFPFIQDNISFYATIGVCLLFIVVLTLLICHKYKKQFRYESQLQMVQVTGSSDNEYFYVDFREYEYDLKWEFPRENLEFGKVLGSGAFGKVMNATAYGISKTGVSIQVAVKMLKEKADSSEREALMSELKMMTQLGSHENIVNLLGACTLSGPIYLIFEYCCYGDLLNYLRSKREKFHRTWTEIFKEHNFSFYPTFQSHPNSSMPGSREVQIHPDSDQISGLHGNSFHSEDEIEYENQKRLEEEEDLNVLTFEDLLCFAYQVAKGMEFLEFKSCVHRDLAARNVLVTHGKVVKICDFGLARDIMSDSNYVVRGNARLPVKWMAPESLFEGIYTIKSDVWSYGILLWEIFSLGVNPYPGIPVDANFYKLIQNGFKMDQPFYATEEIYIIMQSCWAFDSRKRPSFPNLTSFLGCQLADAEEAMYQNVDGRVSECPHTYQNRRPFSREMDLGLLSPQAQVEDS
UniProt P49840: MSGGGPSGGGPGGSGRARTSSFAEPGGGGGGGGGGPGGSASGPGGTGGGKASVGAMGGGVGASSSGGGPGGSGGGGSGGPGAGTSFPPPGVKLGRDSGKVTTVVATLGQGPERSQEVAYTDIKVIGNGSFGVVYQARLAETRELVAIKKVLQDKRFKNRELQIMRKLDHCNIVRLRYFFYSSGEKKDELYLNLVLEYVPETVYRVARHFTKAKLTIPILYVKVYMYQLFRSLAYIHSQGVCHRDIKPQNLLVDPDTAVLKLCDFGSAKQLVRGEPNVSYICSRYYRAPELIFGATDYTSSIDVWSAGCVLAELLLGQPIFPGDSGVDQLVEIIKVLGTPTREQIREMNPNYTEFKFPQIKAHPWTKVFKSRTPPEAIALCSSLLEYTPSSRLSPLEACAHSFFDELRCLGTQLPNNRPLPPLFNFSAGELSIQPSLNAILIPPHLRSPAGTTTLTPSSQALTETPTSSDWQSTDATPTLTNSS

Key:
Experiment in all cases: kinase-Nluc reporter destabilization hit call (1 = scored as downregulated) (binary); higher = compound decreases kinase abundance
Settings in all cases: K562; 2-18 h
[1] = target: EGFR (UniProt P00533)
[2] = target: EGFR_G719S (UniProt P00533)
[3] = target: EGFR_G719S_T790M (UniProt P00533)
[4] = target: EGFR_L718V (UniProt P00533)
[5] = target: EGFR_L858R (UniProt P00533)
[6] = target: EGFR_L861Q (UniProt P00533)
[7] = target: EGFR_T790M (UniProt P00533)
[8] = target: EPHA2 (UniProt P29317)
[9] = target: ERBB3 (UniProt P21860)
[10] = target: ERBB4_R711C (clone: ERBB4_mut) (UniProt Q15303)
[11] = target: ERN1 (UniProt O75460)
[12] = target: FGFR1 (UniProt P11362)
[13] = target: FGFR2 (UniProt P21802)
[14] = target: FGFR3 (UniProt P22607)
[15] = target: FGR (UniProt P09769)
[16] = target: FLT3 (UniProt P36888)
[17] = target: FYN (UniProt P06241)
[18] = target: GSK3A (UniProt P49840)
[19] = target: HER2 (UniProt P04626)
[20] = target: INSRR (UniProt P14616)

Measured: kinase-Nluc reporter destabilization hit call

Cc1cc2cc(Nc3ccnc(Nc4ccc5[nH]c(C)cc5c4)n3)ccc2[nH]1 (2.5 µM)
inactive: [1] 0 | [2] 0 | [3] 0 | [4] 0 | [5] 0 | [6] 0 | [7] 0 | [8] 0 | [9] 0 | [10] 0 | [11] 0 | [12] 0 | [13] 0 | [14] 0 | [15] 0 | [16] 0 | [17] 0 | [18] 0 | [19] 0 | [20] 0

CC(C)=CCC[C@](C)(O[C@@H]1O[C@H](CO)[C@@H](O)[C@H](O)[C@H]1O)[C@H]1CC[C@]2(C)[C@@H]1[C@H](O)C[C@@H]1[C@@]3(C)CC[C@H](O)C(C)(C)[C@@H]3[C@@H](O[C@@H]3O[C@H](CO)[C@@H](O)[C@H](O)[C@H]3O[C@@H]3O[C@@H](C)[C@H](O)[C@@H](O)[C@H]3O)C[C@]12C [Ginsenoside Re] (10 µM)
inactive: [1] 0 | [2] 0 | [3] 0 | [4] 0 | [5] 0 | [6] 0 | [7] 0 | [8] 0 | [9] 0 | [10] 0 | [11] 0 | [12] 0 | [13] 0 | [14] 0 | [15] 0 | [16] 0 | [17] 0 | [18] 0 | [19] 0 | [20] 0

COc1ccc2[nH]cc(/C=C3\C(=O)Nc4ccc(NC(=O)CCN5CCCCC5)cc43)c2c1 (2.5 µM)
inactive: [1] 0 | [2] 0 | [3] 0 | [4] 0 | [5] 0 | [6] 0 | [7] 0 | [8] 0 | [9] 0 | [10] 0 | [11] 0 | [12] 0 | [13] 0 | [14] 0 | [15] 0 | [16] 0 | [17] 0 | [18] 0 | [19] 0 | [20] 0

CC(C)=CC[C@H](O)C1=CC(=O)c2c(O)ccc(O)c2C1=O [(-)-Alkannin] (2.5 µM)
inactive: [1] 0 | [2] 0 | [3] 0 | [4] 0 | [5] 0 | [6] 0 | [7] 0 | [8] 0 | [9] 0 | [10] 0 | [11] 0 | [12] 0 | [13] 0 | [14] 0 | [15] 0 | [16] 0 | [17] 0 | [18] 0 | [19] 0 | [20] 0

C=C(CCC=C(C)C)[C@H]1CC[C@]2(C)[C@@H]1[C@H](O)C[C@@H]1[C@@]3(C)CC[C@H](O[C@@H]4O[C@H](CO)[C@@H](O)[C@H](O)[C@H]4O[C@@H]4O[C@H](CO)[C@@H](O)[C@H](O)[C@H]4O)C(C)(C)[C@@H]3CC[C@]12C [Ginsenoside Rk1] (10 µM)
inactive: [1] 0 | [2] 0 | [3] 0 | [4] 0 | [5] 0 | [6] 0 | [7] 0 | [8] 0 | [9] 0 | [10] 0 | [11] 0 | [12] 0 | [13] 0 | [14] 0 | [15] 0 | [16] 0 | [17] 0 | [18] 0 | [19] 0 | [20] 0

Cn1cnc(-c2cc3nccc(Oc4ccc(NC(=S)NC(=O)Cc5ccccc5)cc4F)c3s2)c1 [MGCD-265 analog] (10 µM)
active: [17] 1
inactive: [1] 0 | [2] 0 | [3] 0 | [4] 0 | [5] 0 | [6] 0 | [7] 0 | [8] 0 | [9] 0 | [10] 0 | [11] 0 | [12] 0 | [13] 0 | [14] 0 | [15] 0 | [16] 0 | [18] 0 | [19] 0 | [20] 0

Cc1ccc(-c2c(C(=O)CCl)n(CCCO)c3ncnc(N)c23)cc1 (10 µM)
active: [17] 1
inactive: [1] 0 | [2] 0 | [3] 0 | [4] 0 | [5] 0 | [6] 0 | [7] 0 | [8] 0 | [9] 0 | [10] 0 | [11] 0 | [12] 0 | [13] 0 | [14] 0 | [15] 0 | [16] 0 | [18] 0 | [19] 0 | [20] 0

COc1cc(N2CCC(N3CCN(C)CC3)CC2)ccc1Nc1ncc(Cl)c(Nc2ccccc2P(C)(C)=O)n1 [Brigatinib] (2 µM)
inactive: [1] 0 | [2] 0 | [3] 0 | [4] 0 | [5] 0 | [6] 0 | [7] 0 | [8] 0 | [9] 0 | [10] 0 | [11] 0 | [12] 0 | [13] 0 | [14] 0 | [15] 0 | [16] 0 | [17] 0 | [18] 0 | [19] 0 | [20] 0

Cc1ccc2nc(NC(=O)CSc3nc4c(c(=O)n3-c3ccccc3)SCC4)sc2c1 (2 µM)
inactive: [1] 0 | [2] 0 | [3] 0 | [4] 0 | [5] 0 | [6] 0 | [7] 0 | [8] 0 | [9] 0 | [10] 0 | [11] 0 | [12] 0 | [13] 0 | [14] 0 | [15] 0 | [16] 0 | [17] 0 | [18] 0 | [19] 0 | [20] 0

OC(COc1ccc(C(F)(F)F)cc1)CN(Cc1ccccc1)Cc1ccccc1 (stereo not given) (2.5 µM)
inactive: [1] 0 | [2] 0 | [3] 0 | [4] 0 | [5] 0 | [6] 0 | [7] 0 | [8] 0 | [9] 0 | [10] 0 | [11] 0 | [12] 0 | [13] 0 | [14] 0 | [15] 0 | [16] 0 | [17] 0 | [18] 0 | [19] 0 | [20] 0

C=CC(=O)Nc1cccc(C)c1Nc1ncc2cc(-c3c(Cl)c(OC)cc(OC)c3Cl)ccc2n1 (2.5 µM)
inactive: [1] 0 | [2] 0 | [3] 0 | [4] 0 | [5] 0 | [6] 0 | [7] 0 | [8] 0 | [9] 0 | [10] 0 | [11] 0 | [12] 0 | [13] 0 | [14] 0 | [15] 0 | [16] 0 | [17] 0 | [18] 0 | [19] 0 | [20] 0

c1cn2cc(-c3ccc4cn[nH]c4c3)nc(Nc3ccc(N4CCOCC4)cc3)c2n1 [Entospletinib] (10 µM)
inactive: [1] 0 | [2] 0 | [3] 0 | [4] 0 | [5] 0 | [6] 0 | [7] 0 | [8] 0 | [9] 0 | [10] 0 | [11] 0 | [12] 0 | [13] 0 | [14] 0 | [15] 0 | [16] 0 | [17] 0 | [18] 0 | [19] 0 | [20] 0

COc1cc2ncnc(Nc3cccc(Cl)c3)c2cc1OC (10 µM)
inactive: [1] 0 | [2] 0 | [3] 0 | [4] 0 | [5] 0 | [6] 0 | [7] 0 | [8] 0 | [9] 0 | [10] 0 | [11] 0 | [12] 0 | [13] 0 | [14] 0 | [15] 0 | [16] 0 | [17] 0 | [18] 0 | [19] 0 | [20] 0

C[C@]1(O)CCC[C@@H]1n1c(=O)c(C(F)F)cc2cnc(NC3CCN(S(C)(=O)=O)CC3)nc21 (10 µM)
inactive: [1] 0 | [2] 0 | [3] 0 | [4] 0 | [5] 0 | [6] 0 | [7] 0 | [8] 0 | [9] 0 | [10] 0 | [11] 0 | [12] 0 | [13] 0 | [14] 0 | [15] 0 | [16] 0 | [17] 0 | [18] 0 | [19] 0 | [20] 0

O=C(/C=C/c1ccc(O)c(O)c1)OC1CC(OC(=O)/C=C/c2ccc(O)c(O)c2)(C(=O)O)CC(O)C1O (stereo not given) [1,3-Dicaffeoylquinic acid] (10 µM)
inactive: [1] 0 | [2] 0 | [3] 0 | [4] 0 | [5] 0 | [6] 0 | [7] 0 | [8] 0 | [9] 0 | [10] 0 | [11] 0 | [12] 0 | [13] 0 | [14] 0 | [15] 0 | [16] 0 | [17] 0 | [18] 0 | [19] 0 | [20] 0

Random excerpt: two records from the list, in no set order.
COc1cc2ncnc(Nc3cccc(Cl)c3)c2cc1OC (10 µM)
inactive: [1] 0 | [2] 0 | [3] 0 | [4] 0 | [5] 0 | [6] 0 | [7] 0 | [8] 0 | [9] 0 | [10] 0 | [11] 0 | [12] 0 | [13] 0 | [14] 0 | [15] 0 | [16] 0 | [17] 0 | [18] 0 | [19] 0 | [20] 0

C[C@]1(O)CCC[C@@H]1n1c(=O)c(C(F)F)cc2cnc(NC3CCN(S(C)(=O)=O)CC3)nc21 (10 µM)
inactive: [1] 0 | [2] 0 | [3] 0 | [4] 0 | [5] 0 | [6] 0 | [7] 0 | [8] 0 | [9] 0 | [10] 0 | [11] 0 | [12] 0 | [13] 0 | [14] 0 | [15] 0 | [16] 0 | [17] 0 | [18] 0 | [19] 0 | [20] 0

Going on with the list:

Cc1ccc(Oc2nc3cc(-c4ccc5c(ccn5C)c4)c(Cl)cc3[nH]2)cc1C(=O)O (10 µM)
inactive: [1] 0 | [2] 0 | [3] 0 | [4] 0 | [5] 0 | [6] 0 | [7] 0 | [8] 0 | [9] 0 | [10] 0 | [11] 0 | [12] 0 | [13] 0 | [14] 0 | [15] 0 | [16] 0 | [17] 0 | [18] 0 | [19] 0 | [20] 0

Cn1c(=O)c(F)c(Nc2ccc(I)cc2F)c2c(=O)n(C[C@@H](O)CO)cnc21 (10 µM)
active: [16] 1
inactive: [1] 0 | [2] 0 | [3] 0 | [4] 0 | [5] 0 | [6] 0 | [7] 0 | [8] 0 | [9] 0 | [10] 0 | [11] 0 | [12] 0 | [13] 0 | [14] 0 | [15] 0 | [17] 0 | [18] 0 | [19] 0 | [20] 0
